Entries after “also recorded” stand apart in the source; their conditions may differ. Not every detail of the peptide structures is certain; ends, links or a residue may be inferred. No end group written: not given here.
Experiments:
[1] = tested on: LOSGD3-sensitized rats; assay: Animal experiment: clinical signs, body weight, dissection at endpoint
[2] = tested on: anti-GD3 antibody and anti-LOSGD3 antibody; assay: Time course of serum anti-GD3 and anti-LOSGD3 antibody (ELISA) in immunized rats; type: in vivo, Lewis rats; conditions: peptide 1000 nmol/kg i.p. daily, from weeks 8, 11 and 14
Description: Antiganglioside antibody activity was evaluated for GM1, GM2, GD1a, GD1b, GT1b, GQ1b, GD3, and LOSGD3 by conventional ELISA method (Usuki et al., 2005. J Neurol Sci 232: 37-44). […] Before the ELISA plate assay, each well was treated with 1% BSA/PBS solution. […] After incubation, the reaction mixture was passed through a 0.22-μm syringe filter (Millipore Corp., Bedford, Mass.). Subsequently, 100 μl of the mixture was added to each well and incubated for 1 hr at room temperature. To each of the wells, a secondary antibody (horseradish peroxidase-conjugated anti-mouse IgG, 1:5,000 dilution in 1% BSA/PBS solution) was added and incubated for 1 hr at room temperature. Finally, the bound secondary antibody was visualized by addition of a color-generating reagent (OPD Peroxidase Substrate). The absorbance was measured at 492 nm with a microplate spectrophotometer (Bio-Rad, Hemel Hempstead, United Kingdom). The nomenclature of gangliosides is based on that of Svennerholm (Svennerholm, 1964. J Lipid Res 5: 145-155).
Anti-ganglioside antibody activity was evaluated for GM1, GM2, GD1a, GD1b, GT1b, GQ1b, GD3, and LOSGD3 by conventional ELISA as previously described (Usuki et al., 2005. J. Neurol. Sci. 232:37-44). […] The absorbance was measured at 492 nm with a microplate spectrophotometer (BioRad, Hemel Hempstead, UK).

[3] = tested on: spinal cord-muscle cocultured cells; assay: NMJ activity: spontaneous muscle action potential frequency after addition of rat serum; type: cell-based; conditions: 10 μL serum of LOSGD3/PGD3-4 rats
[4] = tested on: LOSGD3-sensitized rats; assay: Rotarod motor test
[5] = tested on: LOSGD3-sensitized rats; assay: Histological/morphological examination of lumbar spinal cord and sciatic nerve; type: in vivo, Lewis rats; conditions: sciatic nerve

Sequence: RHAYRSMAEWGFLYS [PGD3-4]
- clinical outcome among the four peptide treatment paradigms ([1]; LOSGD3-sensitized rats, peptide 1000 nmol/kg i.p.): remarkable clinical improvement
- body weight ([1]; LOSGD3/PGD3-4 vs LOSGD3 group, weeks 13-18): better protection; also recorded: maintained weight at the vehicle-treated group level
- effect on serum anti-GD3 / anti-LOSGD3 antibody level [2]: effective in suppressing serum anti-GD3 antibody activity
- blockade of NMJ action potential by serum [3]: no inhibitory activity in that serum; also recorded: did not block the NMJ action potential
- rotarod retention time / motor performance ([4]; LOSGD3/peptide group vs LOSGD3 treatment group, week 17): normalized motor performance; also recorded: statistically significant difference
- rotarod retention time, vehicle/peptide vs vehicle and control ([4]; no LOSGD3, week 17): no statistically significant differences
- loss of myelinated fibers / axons, light microscopic examination ([5]; LOSGD3/peptide treatment): only a moderate loss of myelinated fibers
- myelin thickness, ultrastructural examination ([5]; LOSGD3/peptide treatment): remarkable restoration of myelin thickness
- percentage of myelinated area ([5]; LOSGD3/peptide-treated group, week 18): 26.8±3.8%

Reference: US8513197B2, “Ganglioside epitopes for treating Guillain-Barre syndrome” (Georgia Regents University, priority 2009, dated 2013)
